From the supplement of paper PMC10849652 come the findings set out here.

By UniProt entry, the sequences of proteins in these tests, tags left out. Where a name states a change or a piece, a line headed by the entry shows the natural chain unless it says otherwise.
UniProt P20226, whole entry, looked up: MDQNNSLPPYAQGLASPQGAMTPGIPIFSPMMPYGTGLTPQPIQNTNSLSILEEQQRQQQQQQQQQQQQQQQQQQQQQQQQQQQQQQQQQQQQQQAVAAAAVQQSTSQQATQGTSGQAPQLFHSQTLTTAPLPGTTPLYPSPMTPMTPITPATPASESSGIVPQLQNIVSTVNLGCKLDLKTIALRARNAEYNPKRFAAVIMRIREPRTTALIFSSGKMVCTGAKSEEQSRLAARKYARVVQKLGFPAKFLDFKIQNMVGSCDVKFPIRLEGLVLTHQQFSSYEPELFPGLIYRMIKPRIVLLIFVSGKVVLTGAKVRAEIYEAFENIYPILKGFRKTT
UniProt Q13428: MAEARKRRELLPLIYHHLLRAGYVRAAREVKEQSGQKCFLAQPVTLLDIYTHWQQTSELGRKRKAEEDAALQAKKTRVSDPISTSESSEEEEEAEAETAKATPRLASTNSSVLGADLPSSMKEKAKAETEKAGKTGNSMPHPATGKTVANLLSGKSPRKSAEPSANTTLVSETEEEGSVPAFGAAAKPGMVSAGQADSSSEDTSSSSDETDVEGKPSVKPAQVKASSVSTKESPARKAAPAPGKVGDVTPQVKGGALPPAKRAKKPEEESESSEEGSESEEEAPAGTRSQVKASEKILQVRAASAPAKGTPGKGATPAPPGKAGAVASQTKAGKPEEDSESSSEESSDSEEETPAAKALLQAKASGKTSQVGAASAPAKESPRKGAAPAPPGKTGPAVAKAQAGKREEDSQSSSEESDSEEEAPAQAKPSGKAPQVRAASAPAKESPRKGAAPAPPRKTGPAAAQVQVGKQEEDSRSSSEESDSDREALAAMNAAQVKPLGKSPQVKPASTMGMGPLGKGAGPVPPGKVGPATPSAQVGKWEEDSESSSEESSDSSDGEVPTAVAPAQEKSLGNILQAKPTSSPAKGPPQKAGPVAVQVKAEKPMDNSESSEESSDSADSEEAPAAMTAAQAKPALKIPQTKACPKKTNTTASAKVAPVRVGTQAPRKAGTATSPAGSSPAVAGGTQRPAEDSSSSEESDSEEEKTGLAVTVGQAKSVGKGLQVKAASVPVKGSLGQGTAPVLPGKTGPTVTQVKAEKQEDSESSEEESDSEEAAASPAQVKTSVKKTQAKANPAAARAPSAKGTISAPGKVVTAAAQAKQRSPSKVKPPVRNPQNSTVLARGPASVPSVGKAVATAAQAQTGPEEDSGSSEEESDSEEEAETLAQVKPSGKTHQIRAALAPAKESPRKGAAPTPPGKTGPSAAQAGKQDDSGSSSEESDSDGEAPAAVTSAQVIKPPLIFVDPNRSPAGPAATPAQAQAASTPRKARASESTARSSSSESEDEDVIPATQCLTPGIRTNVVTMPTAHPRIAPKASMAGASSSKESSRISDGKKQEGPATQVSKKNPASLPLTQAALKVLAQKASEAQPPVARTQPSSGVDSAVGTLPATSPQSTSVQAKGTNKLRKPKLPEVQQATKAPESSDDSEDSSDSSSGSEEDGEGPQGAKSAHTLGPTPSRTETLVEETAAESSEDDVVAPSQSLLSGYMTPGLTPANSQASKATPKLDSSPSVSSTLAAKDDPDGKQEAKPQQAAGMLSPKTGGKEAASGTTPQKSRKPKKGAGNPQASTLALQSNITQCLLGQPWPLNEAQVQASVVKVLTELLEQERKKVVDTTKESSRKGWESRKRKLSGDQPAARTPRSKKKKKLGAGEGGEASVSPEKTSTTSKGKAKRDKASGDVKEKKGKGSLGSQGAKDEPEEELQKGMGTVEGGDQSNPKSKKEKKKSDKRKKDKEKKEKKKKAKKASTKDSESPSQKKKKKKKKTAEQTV
UniProt Q9H6P5: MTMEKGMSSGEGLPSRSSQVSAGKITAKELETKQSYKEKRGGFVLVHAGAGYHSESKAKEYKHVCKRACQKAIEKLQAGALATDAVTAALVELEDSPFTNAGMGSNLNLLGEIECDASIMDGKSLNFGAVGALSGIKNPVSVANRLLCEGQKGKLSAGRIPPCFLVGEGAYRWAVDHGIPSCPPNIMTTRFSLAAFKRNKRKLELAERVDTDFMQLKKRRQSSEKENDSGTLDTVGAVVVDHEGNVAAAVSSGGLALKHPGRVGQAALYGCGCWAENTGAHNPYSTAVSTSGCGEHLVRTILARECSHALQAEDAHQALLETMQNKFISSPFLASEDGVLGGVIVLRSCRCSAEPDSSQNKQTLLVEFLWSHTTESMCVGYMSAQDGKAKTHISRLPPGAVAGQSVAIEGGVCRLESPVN
UniProt Q8TEA7: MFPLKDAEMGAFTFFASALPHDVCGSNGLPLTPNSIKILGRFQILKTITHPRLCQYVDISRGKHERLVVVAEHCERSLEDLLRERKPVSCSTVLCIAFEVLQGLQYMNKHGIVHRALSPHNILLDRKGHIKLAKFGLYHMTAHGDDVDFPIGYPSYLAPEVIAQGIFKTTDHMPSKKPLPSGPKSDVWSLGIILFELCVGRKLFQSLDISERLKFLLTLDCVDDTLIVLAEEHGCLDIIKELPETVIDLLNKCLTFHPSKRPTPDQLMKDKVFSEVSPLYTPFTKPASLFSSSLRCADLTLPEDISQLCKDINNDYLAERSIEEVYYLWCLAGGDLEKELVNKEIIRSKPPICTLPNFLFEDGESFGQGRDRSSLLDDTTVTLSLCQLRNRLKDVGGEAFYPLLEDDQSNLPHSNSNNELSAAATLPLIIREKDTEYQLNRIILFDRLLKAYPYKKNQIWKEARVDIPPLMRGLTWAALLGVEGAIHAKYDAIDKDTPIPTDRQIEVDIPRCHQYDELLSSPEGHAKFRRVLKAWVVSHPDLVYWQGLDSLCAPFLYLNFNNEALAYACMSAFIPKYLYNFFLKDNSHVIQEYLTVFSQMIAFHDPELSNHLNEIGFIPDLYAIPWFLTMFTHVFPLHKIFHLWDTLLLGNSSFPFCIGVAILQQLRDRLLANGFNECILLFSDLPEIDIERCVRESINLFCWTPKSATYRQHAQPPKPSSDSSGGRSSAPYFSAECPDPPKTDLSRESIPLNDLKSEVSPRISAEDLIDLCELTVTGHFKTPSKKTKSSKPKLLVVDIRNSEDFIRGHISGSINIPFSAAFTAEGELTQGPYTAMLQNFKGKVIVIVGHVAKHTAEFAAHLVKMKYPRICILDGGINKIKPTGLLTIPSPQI
UniProt Q8IYN2: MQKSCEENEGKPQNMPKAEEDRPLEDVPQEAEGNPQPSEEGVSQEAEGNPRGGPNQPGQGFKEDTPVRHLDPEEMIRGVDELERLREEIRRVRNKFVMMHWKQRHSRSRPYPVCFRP
UniProt P24557: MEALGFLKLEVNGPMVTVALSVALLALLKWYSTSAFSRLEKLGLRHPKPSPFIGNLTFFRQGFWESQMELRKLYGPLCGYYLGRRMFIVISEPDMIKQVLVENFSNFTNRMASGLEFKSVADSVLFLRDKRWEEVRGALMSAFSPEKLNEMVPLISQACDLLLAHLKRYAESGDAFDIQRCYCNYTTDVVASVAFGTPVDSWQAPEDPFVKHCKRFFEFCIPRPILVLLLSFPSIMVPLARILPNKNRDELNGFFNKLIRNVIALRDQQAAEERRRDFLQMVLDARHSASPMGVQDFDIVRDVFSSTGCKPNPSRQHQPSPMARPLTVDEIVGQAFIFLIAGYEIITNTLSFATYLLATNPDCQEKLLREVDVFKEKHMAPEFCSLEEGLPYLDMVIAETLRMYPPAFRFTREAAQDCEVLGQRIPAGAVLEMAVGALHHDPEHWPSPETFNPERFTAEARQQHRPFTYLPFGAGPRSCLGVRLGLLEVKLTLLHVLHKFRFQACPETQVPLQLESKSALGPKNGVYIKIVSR
UniProt P15884: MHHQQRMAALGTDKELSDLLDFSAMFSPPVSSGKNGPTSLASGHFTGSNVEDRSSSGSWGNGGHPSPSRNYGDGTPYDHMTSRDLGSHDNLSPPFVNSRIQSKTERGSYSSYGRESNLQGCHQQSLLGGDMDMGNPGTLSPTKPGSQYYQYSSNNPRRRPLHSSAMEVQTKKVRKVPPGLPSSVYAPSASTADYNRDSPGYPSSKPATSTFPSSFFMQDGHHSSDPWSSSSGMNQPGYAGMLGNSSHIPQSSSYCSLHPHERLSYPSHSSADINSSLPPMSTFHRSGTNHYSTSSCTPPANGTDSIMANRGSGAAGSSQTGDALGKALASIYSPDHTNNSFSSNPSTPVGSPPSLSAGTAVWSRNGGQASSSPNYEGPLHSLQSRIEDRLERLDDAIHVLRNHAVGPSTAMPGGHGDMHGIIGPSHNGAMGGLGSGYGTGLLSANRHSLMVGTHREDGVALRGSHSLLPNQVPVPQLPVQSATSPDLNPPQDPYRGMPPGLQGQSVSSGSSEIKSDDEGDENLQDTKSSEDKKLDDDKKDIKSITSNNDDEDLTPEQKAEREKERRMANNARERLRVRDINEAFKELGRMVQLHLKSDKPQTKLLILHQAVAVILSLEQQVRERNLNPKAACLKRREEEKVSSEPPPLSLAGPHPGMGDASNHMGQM

The other results are listed elsewhere or left out.

Compound in the first assay: O=C(O)c1ccc2c(c1)nc(Nc1cccc(Cl)c1)c1ccncc12 [silmitasertib]
Kind of assay: log2 fold change, soluble protein after heating vs DMSO (PISA); higher = thermal stabilisation; K562 lysate, 10 uM; active = over 0.2 and 3.5 SD of the protein, either way, in both replicates (recomputed). In outline:
(§1)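 K562 pellets were dounce-homogenised in PBS pH 7.4 with 1 mM MgCl2, and the crude extract at 1 mg/mL protein was treated with 10 μM compound for 30 min. Aliquots were heated for 3 min across 48°C-58°C, pooled, and brought to 0.5% NP-40 at 4°C; soluble protein was the supernatant after 21,000xg for 90 min. Soluble protein was quantified by TMTpro 16plex LC-MS/MS with channel sums equalised, and reported as log2 fold change in thermal stability against DMSO controls, with values from duplicates.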
As to TAX1BP1 isoform 2 (UniProt Q86VP1), the log2 fold change was inactive: 0.099.
With TCF3 isoform 2 (UniProt P15923), the log2 fold change is inactive: -0.056.
For TBCA (UniProt E5RHG6), the log2 fold change is inactive: -0.073.
Same read-out and setting: for TBP (UniProt P20226) the value was inactive: 0.038.
The same measure, in the same setting: the result for TBCCD1 (UniProt Q9NVR7) reads inactive: 0.095.
In the case of TCOF1 isoform 3 (UniProt Q13428), the log2 fold change was inactive: -0.123.
With TASP1 (UniProt Q9H6P5), the log2 fold change was inactive: -0.018.
For TBCK (UniProt Q8TEA7), the log2 fold change is inactive: -0.159.

Compound in the next assay: O=C1NC(=O)C(c2cnc3ccccn23)=C1c1cn2c3c(cc(F)cc13)CN(C(=O)N1CCCCC1)CC2
The description is as above. The method, boiled down:
as §1
Take TERF1 (UniProt P54274): the log2 fold change was inactive: -0.011.
Take TENM4 (UniProt Q6N022): the log2 fold change is inactive: 0.143.
Regarding TGDS (UniProt O95455), the log2 fold change was inactive: -0.029.
With TCF20 (UniProt Q9UGU0), the log2 fold change was inactive: -0.056.
In the case of TDG (UniProt Q13569), the log2 fold change was inactive: -0.12.
As to TCN1 (UniProt P20061), the log2 fold change is inactive: -0.05.
For the target TBXA2R (UniProt P21731), the log2 fold change was inactive: 0.056.
Turning to TCOF1 isoform 6 (UniProt Q13428), the log2 fold change is inactive: -0.075.
In the case of TEAD3 (UniProt Q99594), the log2 fold change is inactive: 0.037.
In the case of TBC1D10A (UniProt Q9BXI6), the log2 fold change was inactive: -0.137.
Take TCEAL8 (UniProt Q8IYN2): the log2 fold change was inactive: 0.024.
Regarding TAOK2 (UniProt Q9UL54), the log2 fold change is inactive: -0.051.
TENT4B isoform 5 (UniProt Q8NDF8): the log2 fold change is inactive: 0.069.
On the same count and under the same terms, the result for TBXAS1 isoform 3 (UniProt P24557) reads inactive: -0.198; that for TCF4 (UniProt P15884), inactive: 0.078; that for TEDC2 (UniProt Q7L2K0), inactive: -0.221.
With TBCD, A0A0J9YWI5, the log2 fold change is inactive: -0.042.
Take TET2 (UniProt Q6N021): the log2 fold change was inactive: -0.049.
In the case of TEDC1 (UniProt Q86SX3), the log2 fold change is inactive: -0.012.
Same read-out and setting: for TAZ (UniProt Q16635) the value was inactive: 0; for TCF3 isoform 2 (UniProt P15923), inactive: 0.043.
Same read-out and setting: the result for TBCA (UniProt E5RHG6) reads inactive: 0.055; that for TBP (UniProt P20226), inactive: -0.011.
Turning to TCOF1 isoform 3 (UniProt Q13428), the log2 fold change was inactive: 0.202.
In the case of TCEAL4 isoform 2 (UniProt Q96EI5), the log2 fold change was inactive: -0.024.
In the case of TCTN3 (UniProt Q6NUS6), the log2 fold change is inactive: 0.029.
With TASP1 (UniProt Q9H6P5), the log2 fold change was inactive: 0.029.
Regarding TBCK (UniProt Q8TEA7), the log2 fold change was inactive: -0.07.

Compound in the next assay: c1cn2cc(-c3ccc4cn[nH]c4c3)nc(Nc3ccc(N4CCOCC4)cc3)c2n1 [entospletinib]
Described as above. In outline: as §1
In the case of TERF1 (UniProt P54274), the log2 fold change was inactive: 0.132.
As for TDG (UniProt Q13569), the log2 fold change was inactive: -0.045.
Turning to TCN1 (UniProt P20061), the log2 fold change is inactive: -0.17.
Regarding TEAD3 (UniProt Q99594), the log2 fold change was inactive: -0.026.
On to TARDBP (UniProt K7EN94), for which the log2 fold change is inactive: -0.166.
Same read-out and setting: the result for TASOR2 (UniProt Q5VWN6) reads inactive: 0.037.
For the target TCEAL8 (UniProt Q8IYN2), the log2 fold change is inactive: -0.161.
In the case of TEC (UniProt P42680), the log2 fold change was inactive: 0.037.
As to TBX1 isoform 3 (UniProt O43435), the log2 fold change was inactive: -0.176.
As to TAOK2 (UniProt Q9UL54), the log2 fold change was inactive: 0.01.
TC2N (UniProt Q8N9U0): the log2 fold change is inactive: -0.009.
Regarding TCF4 (UniProt P15884), the log2 fold change was inactive: -0.074.
On the same count and under the same terms, for TBCD, A0A0J9YWI5 the value was inactive: 0.061.
Take TET2 (UniProt Q6N021): the log2 fold change was inactive: -0.15.
Same read-out and setting: the result for TEDC1 (UniProt Q86SX3) reads inactive: -0.032; that for TCEA2 (UniProt Q15560), inactive: -0.069.
With TBP (UniProt P20226), the log2 fold change is inactive: -0.215.
As to TCEAL4 isoform 2 (UniProt Q96EI5), the log2 fold change was inactive: 0.019.
As for TASP1 (UniProt Q9H6P5), the log2 fold change was inactive: 0.21.
With TBCK (UniProt Q8TEA7), the log2 fold change is inactive: -0.014.
